# Assay results as given in PMC3553015 (2013).
# By UniProt entry, the sequences of proteins in these tests, tags left out. Where a name states a change or a piece, a line headed by the entry shows the natural chain unless it says otherwise.
# UniProt P11911: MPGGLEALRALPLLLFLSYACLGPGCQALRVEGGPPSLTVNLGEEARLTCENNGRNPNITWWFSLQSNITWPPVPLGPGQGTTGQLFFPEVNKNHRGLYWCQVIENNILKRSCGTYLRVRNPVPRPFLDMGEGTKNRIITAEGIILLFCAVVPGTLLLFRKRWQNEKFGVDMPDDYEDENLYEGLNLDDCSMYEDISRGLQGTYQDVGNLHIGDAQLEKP
# UniProt P15530: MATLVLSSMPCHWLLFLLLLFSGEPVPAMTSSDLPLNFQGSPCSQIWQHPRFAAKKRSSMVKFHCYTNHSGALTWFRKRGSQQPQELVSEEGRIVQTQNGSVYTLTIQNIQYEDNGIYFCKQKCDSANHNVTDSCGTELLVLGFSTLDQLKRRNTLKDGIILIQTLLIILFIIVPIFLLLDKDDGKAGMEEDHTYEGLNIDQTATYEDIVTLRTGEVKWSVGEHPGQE
# UniProt P84091: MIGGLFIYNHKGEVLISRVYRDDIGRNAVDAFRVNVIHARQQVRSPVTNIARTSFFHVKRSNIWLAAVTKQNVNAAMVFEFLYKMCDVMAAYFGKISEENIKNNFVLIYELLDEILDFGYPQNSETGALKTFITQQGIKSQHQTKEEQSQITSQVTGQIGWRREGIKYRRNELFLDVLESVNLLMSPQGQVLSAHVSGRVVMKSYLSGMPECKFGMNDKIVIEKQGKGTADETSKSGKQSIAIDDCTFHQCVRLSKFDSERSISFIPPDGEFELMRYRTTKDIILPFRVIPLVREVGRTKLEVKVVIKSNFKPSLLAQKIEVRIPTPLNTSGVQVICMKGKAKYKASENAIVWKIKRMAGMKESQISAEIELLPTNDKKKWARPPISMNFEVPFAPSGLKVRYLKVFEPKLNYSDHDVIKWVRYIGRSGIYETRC
# Results are given in words; binding and its absence hold for the method and conditions named. Binding seen in cells or lysates may run through a third protein. Some entries that bind do so weakly or less than the wild type.
# B1: 18-mer peptide [xxYxxØ]3 of the CD79a YxxØ motif centered on Y193 (peptide, UniProt P11911 191-196; P11911 191-196; P11911 191-196)
# peptide: SMYEDISMYEDISMYEDI
# B2: 18-mer peptide [xxYxxØ]3 of the membrane proximal YxxØ motif of CD79a (Y182) (peptide, UniProt P11911 180-185; P11911 180-185; P11911 180-185)
# peptide: NLYEGLNLYEGLNLYEGL
# B3: 18-mer peptide [xxYxxØ]3 of the CD79a YxxØ motif centered on Y204 (peptide, UniProt P11911 202-207; P11911 202-207; P11911 202-207)
# peptide: GTYQDVGTYQDVGTYQDV
# B4: 18-mer peptide [xxYxxØ]3 of the single downstream YxxØ motif of CD79b (Y206) (peptide, UniProt P15530 204-209; P15530 204-209; P15530 204-209)
# peptide: ATYEDIATYEDIATYEDI
# Biological target: biotin-labeled AP2µ (murine) (UniProt P84091)
# Experiment: pull-down; competitive inhibition: synthetic peptide (250 µM final) mixed with in vitro translated AP2µ-btn for 30 minutes, then added to glutathione-immobilised GST–[SDYQRL]3 for 30 minutes; percent inhibition taken as read-out of peptide binding to AP2µ-btn; only the binder purified
row,binding,Binder
1,binds,B1
2,no binding (tested: 250 µM),B2
3,binds,B3
4,no binding (tested: 250 µM),B4
